Experimental data taken from PMC7018950.
These are yes or no findings as the source states them, for the method shown. For some assays here: Binding seen in cells or lysates may run through a third protein. Some binding calls cover weakened binding; strength is not graded here. Tags and fused reporters may be left off the sequences shown. One block for each binder: values may come before it.

Experiments:
[1] = molecular target: T1, AtCHS (BiFC fusion) (Arabidopsis thaliana) (UniProt P13114); assay: split reporter; BiFC in Nicotiana benthamiana leaf cells; NmVen210 and CVen210 fusions from pDOE-05, agroinfiltration, 25 °C for 2 days, confocal microscopy
T1 sequence: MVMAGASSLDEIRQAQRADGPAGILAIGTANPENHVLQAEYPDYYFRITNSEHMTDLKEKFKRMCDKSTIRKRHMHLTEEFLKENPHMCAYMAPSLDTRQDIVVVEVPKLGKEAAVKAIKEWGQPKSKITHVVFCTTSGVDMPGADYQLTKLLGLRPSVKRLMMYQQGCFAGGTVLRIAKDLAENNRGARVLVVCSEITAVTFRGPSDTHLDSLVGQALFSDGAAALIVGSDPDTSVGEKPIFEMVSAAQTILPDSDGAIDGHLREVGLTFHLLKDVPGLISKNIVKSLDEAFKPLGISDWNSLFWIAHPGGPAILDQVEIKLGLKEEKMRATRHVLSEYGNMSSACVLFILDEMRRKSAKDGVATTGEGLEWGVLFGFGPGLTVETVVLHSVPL

[2] = molecular target: T2, AtCHS (GAL4 two-hybrid fusion) (Arabidopsis thaliana) (UniProt P13114); assay: two-hybrid; GAL4-based (Matchmaker Gold), S. cerevisiae Y2H Gold; fusions with the GAL4 activation and DNA-binding domains; growth on -WL, -WLH and -WLHAde
T2 sequence: T1 sequence

binding [1]: binds
B1: AtCHIL (BiFC fusion) (protein, UniProt Q8VZW3 5-209)
chain: MVMVHEVPFPPQIITSKPLSLLGQGITDIEIHFLQVKFTAIGVYLDPSDVKTHLDNWKGKTGKELAGDDDFFDALASAEMEKVIRVVVIKEIKGAQYGVQLENTVRDRLAEEDKYEEEEETELEKVVGFFQSKYFKANSVITYHFSAKDGICEIGFETEGKEEEKLKVENANVVGMMQRWYLSGSRGVSPSTIVSIADSISAVLT

binding [2]: binds
B2: AtCHIL (GAL4 two-hybrid fusion) (protein, UniProt Q8VZW3 1-209)
chain: MGTEMVMVHEVPFPPQIITSKPLSLLGQGITDIEIHFLQVKFTAIGVYLDPSDVKTHLDNWKGKTGKELAGDDDFFDALASAEMEKVIRVVVIKEIKGAQYGVQLENTVRDRLAEEDKYEEEEETELEKVVGFFQSKYFKANSVITYHFSAKDGICEIGFETEGKEEEKLKVENANVVGMMQRWYLSGSRGVSPSTIVSIADSISAVLT
